The experiment addresses FLAG-tagged eukaryotic translation initiation factor 2 subunit α (human) (UniProt P05198). Briefly: co-IP; HEK293T and H1299 cells transfected for 48 h; 1 mg RIPA lysate with 10 μl anti-Flag M2 agarose, 4 °C, 4.5 h, washed with TBS; blot with anti-CHIP antibody.

Protein sequences, listed by entry. Tags and fused reporters are not part of them.
UniProt P05198: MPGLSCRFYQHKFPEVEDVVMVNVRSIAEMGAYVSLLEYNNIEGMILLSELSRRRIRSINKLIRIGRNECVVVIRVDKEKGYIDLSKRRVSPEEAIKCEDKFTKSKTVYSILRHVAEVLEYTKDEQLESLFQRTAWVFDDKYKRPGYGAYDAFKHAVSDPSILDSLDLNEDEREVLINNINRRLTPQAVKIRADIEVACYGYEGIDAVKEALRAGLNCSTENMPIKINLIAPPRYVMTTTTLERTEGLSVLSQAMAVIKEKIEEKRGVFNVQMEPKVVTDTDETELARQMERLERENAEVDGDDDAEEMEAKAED
UniProt Q9UNE7: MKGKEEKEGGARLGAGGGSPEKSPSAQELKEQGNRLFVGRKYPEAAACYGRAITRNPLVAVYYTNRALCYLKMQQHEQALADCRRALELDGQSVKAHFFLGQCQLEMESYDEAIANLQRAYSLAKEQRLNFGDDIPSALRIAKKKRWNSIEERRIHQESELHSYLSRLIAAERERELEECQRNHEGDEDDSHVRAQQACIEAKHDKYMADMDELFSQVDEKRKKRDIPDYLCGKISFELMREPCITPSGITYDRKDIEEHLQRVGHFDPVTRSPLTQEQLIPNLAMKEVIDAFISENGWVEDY

For two substances, binding results are on record in article PMC10877634.

Results are given in words; binding and its absence hold for the method and conditions named. In cells and extracts the contact can be indirect. Some binding calls cover weakened binding; strength is not graded here.

Consider “carboxyl terminus of the HSC70-interaction protein (endogenous) (from UniProt Q9UNE7 1-303) (enzyme)”, for which the binding entry is recorded as “binds”. To “carboxyl terminus of the HSC70-interaction protein (exogenous) (from UniProt Q9UNE7 1-303) (enzyme)” belongs “binds”.
